Results deposited as PubChem BioAssay AID1224830 (NIAID, 2016)

Aim: 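Genes whose knock-down alters the TNF-alpha reporter response to LPS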 (primary screen)
System: human THP-1 monocytic leukaemia cells, TNF dual-luciferase reporter clone, PMA-differentiated to macrophage-like cells
Reagent: siRNA pool against human genes, 50 nM
Duration: LPS for 4 h, given about 3 days after siRNA transfection
Challenge: bacterial LPS (TLR4 ligand), 10 ng/ml
Measurement: 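Ratio of firefly to renilla light, scaled to the plate median and expressed as a robust z-score per replicate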
Reading the numbers: TNF reporter robust z-score: higher = stronger TNF reporter response to LPS
Active means: 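Each well counts as active if its z-score is over 2.8 or under -1.5; controls are left without a call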
Shown is one part, drawn at random, of about 18,000 reagents. Over the whole deposit, about 2,900 (16%) got an active call. 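Calls are made per well; low scores hint the gene aids the LPS response, high scores that it dampens it.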 Repeated entries: four replicate wells of each siRNA pool.

| target gene | TNF reporter robust z-score | call |
| --- | --- | --- |
| RNASE7 | -0.6 | inactive |
| RNASE7 | 0.07 | inactive |
| RNASE7 | -0.9 | inactive |
| RNASE7 | 1.25 | inactive |
| JOSD2 | 2.01 | inactive |
| JOSD2 | 1.87 | inactive |
| JOSD2 | 0.5 | inactive |
| JOSD2 | 2.71 | inactive |
| TIFA | -0.32 | inactive |
| TIFA | 1.18 | inactive |
| TIFA | 0.63 | inactive |
| TIFA | 0.14 | inactive |
| SLC24A5 | -0.88 | inactive |
| SLC24A5 | 0.67 | inactive |
| SLC24A5 | 0.16 | inactive |
| SLC24A5 | 0.8 | inactive |
| EPM2AIP1 | 1.63 | inactive |
| EPM2AIP1 | -0.76 | inactive |
| EPM2AIP1 | -1.51 | active |
| EPM2AIP1 | -1.26 | inactive |
| OR4D11 | 1.82 | inactive |
| OR4D11 | 1.46 | inactive |
| OR4D11 | 3.2 | active |
| OR4D11 | 2.49 | inactive |
| GRIP1 | -0.81 | inactive |
| GRIP1 | 0.52 | inactive |
| GRIP1 | 0.47 | inactive |
| GRIP1 | 1.55 | inactive |
| RNF113B | -1.03 | inactive |
| RNF113B | -0.82 | inactive |
| RNF113B | 0.97 | inactive |
| RNF113B | -0.45 | inactive |
| FOXE1 | -0.97 | inactive |
| FOXE1 | -0.48 | inactive |
| FOXE1 | -0.75 | inactive |
| TMEM135 | -0.02 | inactive |
| TMEM135 | 3.14 | active |
| TMEM135 | 0 | inactive |
| TMEM135 | 0.8 | inactive |
| ATXN3 | -0.41 | inactive |
| ATXN3 | 0.35 | inactive |
| ATXN3 | 0.2 | inactive |
| ATXN3 | -0.05 | inactive |
| SRGAP3 | -0.75 | inactive |
| SRGAP3 | 1.22 | inactive |
| SRGAP3 | 1.7 | inactive |
| SRGAP3 | 0.83 | inactive |
| TMEM242 | -0.49 | inactive |
| TMEM242 | -0.63 | inactive |
| TMEM242 | -0.77 | inactive |
| TMEM242 | 0.84 | inactive |
| COA8 | 1.37 | inactive |
| COA8 | 0.05 | inactive |
| COA8 | 2.32 | inactive |
| COA8 | 0.24 | inactive |
| SNX33 | -0.63 | inactive |
| SNX33 | 0.27 | inactive |
| SNX33 | 0.57 | inactive |
| SNX33 | 0.04 | inactive |
| MCM9 | 0.62 | inactive |
| MCM9 | 1.22 | inactive |
| MCM9 | 1.08 | inactive |
| MCM9 | 3.51 | active |
| ABR | 0.17 | inactive |
| ABR | 1.26 | inactive |
| ABR | 0.06 | inactive |
| ABR | 3.77 | active |
| JADE1 | -0.33 | inactive |
| JADE1 | 0.5 | inactive |
| JADE1 | -0.86 | inactive |
| JADE1 | 0.72 | inactive |
| ADH5 | 0.07 | inactive |
| ADH5 | 0.77 | inactive |
| ADH5 | 0.48 | inactive |
| ADH5 | 0.98 | inactive |

Not a retest: 9 of the entries above.
| target gene | TNF reporter robust z-score | call |
| --- | --- | --- |
| EPM2AIP1 | 1.63 | inactive |
| EPM2AIP1 | -0.76 | inactive |
| EPM2AIP1 | -1.51 | active |
| EPM2AIP1 | -1.26 | inactive |
| OR4D11 | 1.82 | inactive |
| OR4D11 | 1.46 | inactive |
| OR4D11 | 3.2 | active |
| OR4D11 | 2.49 | inactive |
| GRIP1 | -0.81 | inactive |
